Assay results from doi:10.1101/2023.10.09.561576.
Results are given in words; binding and its absence hold for the method and conditions named. In cells and extracts the contact can be indirect. Here binding means that the protein was enriched with, or labelled near, the bait; the list need not be complete. Blank lines part the entries; values can stand above or below the molecule they belong to.

Amino acid sequences for entries named in this document (tags omitted).
UniProt Q96P20: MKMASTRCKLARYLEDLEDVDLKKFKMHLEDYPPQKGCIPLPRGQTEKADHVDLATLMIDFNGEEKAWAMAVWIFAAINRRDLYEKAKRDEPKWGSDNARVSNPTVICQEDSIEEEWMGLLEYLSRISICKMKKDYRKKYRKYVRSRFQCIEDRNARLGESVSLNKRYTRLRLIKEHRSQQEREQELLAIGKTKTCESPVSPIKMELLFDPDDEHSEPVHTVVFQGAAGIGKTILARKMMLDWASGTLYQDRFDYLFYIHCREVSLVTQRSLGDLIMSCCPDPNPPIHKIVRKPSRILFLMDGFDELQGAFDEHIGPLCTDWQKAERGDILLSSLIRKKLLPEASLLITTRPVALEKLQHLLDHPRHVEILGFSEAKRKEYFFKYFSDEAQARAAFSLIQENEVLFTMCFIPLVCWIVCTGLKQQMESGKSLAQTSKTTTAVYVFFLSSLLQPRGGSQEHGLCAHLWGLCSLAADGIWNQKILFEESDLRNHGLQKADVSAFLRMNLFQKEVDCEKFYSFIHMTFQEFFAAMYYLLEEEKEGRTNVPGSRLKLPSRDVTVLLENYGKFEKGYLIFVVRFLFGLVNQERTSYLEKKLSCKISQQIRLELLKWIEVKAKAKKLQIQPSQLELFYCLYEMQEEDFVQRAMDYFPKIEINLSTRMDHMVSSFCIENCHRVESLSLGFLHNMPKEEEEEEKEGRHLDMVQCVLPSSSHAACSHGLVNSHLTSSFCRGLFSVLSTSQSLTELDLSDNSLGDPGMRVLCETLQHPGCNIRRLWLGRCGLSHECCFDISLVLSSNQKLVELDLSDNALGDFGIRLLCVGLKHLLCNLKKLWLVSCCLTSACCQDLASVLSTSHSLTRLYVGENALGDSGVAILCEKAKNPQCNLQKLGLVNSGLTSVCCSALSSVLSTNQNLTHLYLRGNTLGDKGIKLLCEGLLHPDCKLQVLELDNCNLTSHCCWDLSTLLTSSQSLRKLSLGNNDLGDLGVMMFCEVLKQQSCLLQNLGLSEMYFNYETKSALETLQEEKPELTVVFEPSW
UniProt O94782: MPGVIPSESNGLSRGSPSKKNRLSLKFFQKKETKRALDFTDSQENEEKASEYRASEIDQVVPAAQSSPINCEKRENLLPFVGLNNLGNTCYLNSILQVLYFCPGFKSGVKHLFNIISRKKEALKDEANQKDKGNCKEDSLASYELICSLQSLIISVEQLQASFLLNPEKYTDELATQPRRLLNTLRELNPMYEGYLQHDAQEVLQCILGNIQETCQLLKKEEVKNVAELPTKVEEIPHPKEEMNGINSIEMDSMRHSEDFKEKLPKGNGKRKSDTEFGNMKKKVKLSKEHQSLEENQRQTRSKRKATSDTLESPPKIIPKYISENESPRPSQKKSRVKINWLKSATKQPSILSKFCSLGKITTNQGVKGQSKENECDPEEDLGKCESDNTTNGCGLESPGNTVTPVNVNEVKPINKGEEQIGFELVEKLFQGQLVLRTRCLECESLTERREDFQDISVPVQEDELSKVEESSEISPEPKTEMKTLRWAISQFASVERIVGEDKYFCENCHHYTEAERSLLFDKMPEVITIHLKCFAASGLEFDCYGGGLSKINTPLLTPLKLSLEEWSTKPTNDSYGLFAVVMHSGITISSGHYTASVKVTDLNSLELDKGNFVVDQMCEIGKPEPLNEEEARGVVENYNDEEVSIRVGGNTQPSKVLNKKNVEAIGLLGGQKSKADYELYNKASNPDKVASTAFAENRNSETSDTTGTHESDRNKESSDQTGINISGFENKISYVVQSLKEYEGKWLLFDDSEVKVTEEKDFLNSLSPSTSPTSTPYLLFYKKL
UniProt Q96BN8: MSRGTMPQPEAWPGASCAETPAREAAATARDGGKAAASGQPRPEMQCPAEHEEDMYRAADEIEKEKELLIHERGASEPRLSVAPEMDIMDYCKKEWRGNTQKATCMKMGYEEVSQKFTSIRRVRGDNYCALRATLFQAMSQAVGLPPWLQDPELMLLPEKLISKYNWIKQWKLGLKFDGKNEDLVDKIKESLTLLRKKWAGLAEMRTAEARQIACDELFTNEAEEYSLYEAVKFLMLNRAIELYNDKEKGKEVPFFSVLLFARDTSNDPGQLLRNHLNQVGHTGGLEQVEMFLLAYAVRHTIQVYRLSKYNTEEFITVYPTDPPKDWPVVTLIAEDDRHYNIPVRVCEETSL
UniProt O15372: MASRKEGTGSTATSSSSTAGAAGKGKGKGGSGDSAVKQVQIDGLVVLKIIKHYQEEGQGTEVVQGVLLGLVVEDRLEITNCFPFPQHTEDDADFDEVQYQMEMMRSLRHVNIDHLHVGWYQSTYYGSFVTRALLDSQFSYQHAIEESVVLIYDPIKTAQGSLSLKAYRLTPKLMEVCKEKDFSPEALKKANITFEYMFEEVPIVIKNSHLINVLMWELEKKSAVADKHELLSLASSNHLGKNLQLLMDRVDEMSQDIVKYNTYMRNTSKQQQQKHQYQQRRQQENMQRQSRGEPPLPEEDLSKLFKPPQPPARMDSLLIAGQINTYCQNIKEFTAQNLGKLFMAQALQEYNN
UniProt Q9UPU5: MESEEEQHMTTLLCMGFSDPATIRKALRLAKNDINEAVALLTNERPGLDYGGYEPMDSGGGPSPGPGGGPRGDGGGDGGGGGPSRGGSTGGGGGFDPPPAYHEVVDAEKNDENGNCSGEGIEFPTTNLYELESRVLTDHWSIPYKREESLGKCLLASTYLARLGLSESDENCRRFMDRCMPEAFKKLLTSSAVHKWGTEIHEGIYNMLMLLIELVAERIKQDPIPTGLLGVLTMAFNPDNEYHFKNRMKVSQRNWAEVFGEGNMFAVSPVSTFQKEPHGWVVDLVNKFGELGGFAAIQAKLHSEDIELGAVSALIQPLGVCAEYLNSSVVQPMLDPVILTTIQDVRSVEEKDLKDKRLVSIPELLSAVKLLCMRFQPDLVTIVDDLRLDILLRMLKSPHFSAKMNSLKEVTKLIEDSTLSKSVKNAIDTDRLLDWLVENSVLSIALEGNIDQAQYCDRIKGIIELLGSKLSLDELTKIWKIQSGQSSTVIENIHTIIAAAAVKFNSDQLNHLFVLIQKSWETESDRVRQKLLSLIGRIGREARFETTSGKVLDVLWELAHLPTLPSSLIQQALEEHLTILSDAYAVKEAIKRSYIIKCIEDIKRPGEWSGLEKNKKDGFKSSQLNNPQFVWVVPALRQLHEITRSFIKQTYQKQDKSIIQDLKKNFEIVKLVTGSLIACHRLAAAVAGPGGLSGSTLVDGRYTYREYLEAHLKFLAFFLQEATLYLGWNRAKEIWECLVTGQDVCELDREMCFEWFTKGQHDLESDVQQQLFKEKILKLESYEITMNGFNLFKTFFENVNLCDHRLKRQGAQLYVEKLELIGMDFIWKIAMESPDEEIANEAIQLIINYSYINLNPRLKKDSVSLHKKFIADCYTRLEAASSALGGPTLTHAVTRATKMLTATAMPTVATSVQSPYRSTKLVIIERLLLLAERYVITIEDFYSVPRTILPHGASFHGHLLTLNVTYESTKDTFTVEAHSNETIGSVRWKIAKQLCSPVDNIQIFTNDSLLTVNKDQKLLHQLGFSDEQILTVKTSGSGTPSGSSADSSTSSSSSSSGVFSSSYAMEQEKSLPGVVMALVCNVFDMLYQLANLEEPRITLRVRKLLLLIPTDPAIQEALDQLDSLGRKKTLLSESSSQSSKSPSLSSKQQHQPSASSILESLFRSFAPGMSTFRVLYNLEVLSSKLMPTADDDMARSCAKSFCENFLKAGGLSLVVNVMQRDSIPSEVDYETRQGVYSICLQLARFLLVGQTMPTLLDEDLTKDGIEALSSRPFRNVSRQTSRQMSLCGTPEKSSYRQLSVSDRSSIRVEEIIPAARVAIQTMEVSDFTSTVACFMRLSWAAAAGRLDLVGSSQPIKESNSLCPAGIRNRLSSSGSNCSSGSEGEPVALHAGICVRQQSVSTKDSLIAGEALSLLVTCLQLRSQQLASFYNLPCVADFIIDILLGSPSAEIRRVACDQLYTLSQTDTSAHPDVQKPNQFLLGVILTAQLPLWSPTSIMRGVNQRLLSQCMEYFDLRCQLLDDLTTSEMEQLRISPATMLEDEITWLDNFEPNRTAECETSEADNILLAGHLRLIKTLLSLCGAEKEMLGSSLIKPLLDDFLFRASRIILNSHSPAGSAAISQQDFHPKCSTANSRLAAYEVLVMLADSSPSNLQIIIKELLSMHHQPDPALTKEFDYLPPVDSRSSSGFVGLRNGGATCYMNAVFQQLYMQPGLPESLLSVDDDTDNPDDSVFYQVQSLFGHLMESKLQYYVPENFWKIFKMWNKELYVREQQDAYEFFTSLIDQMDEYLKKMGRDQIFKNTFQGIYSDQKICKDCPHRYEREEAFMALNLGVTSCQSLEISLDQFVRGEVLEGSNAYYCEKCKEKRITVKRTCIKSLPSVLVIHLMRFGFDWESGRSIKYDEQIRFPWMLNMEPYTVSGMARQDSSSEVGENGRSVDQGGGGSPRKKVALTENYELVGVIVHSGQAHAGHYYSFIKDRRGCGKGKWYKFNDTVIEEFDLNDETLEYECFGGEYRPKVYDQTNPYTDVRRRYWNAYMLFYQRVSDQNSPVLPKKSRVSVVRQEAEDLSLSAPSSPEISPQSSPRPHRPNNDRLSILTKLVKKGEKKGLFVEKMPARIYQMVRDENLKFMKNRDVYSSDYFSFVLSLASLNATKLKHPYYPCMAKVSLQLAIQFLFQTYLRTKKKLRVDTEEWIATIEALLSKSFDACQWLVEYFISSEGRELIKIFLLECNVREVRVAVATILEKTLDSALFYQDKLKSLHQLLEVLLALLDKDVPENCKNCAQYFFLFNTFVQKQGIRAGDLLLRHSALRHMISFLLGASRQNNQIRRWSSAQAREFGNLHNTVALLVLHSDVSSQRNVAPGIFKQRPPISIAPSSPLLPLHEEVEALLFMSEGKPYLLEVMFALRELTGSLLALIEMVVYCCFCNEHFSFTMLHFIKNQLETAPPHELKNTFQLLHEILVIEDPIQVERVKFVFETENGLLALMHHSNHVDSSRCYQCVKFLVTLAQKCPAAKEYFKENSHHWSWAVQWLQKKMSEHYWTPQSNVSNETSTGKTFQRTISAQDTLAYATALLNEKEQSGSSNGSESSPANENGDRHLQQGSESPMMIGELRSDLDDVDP
UniProt P45974: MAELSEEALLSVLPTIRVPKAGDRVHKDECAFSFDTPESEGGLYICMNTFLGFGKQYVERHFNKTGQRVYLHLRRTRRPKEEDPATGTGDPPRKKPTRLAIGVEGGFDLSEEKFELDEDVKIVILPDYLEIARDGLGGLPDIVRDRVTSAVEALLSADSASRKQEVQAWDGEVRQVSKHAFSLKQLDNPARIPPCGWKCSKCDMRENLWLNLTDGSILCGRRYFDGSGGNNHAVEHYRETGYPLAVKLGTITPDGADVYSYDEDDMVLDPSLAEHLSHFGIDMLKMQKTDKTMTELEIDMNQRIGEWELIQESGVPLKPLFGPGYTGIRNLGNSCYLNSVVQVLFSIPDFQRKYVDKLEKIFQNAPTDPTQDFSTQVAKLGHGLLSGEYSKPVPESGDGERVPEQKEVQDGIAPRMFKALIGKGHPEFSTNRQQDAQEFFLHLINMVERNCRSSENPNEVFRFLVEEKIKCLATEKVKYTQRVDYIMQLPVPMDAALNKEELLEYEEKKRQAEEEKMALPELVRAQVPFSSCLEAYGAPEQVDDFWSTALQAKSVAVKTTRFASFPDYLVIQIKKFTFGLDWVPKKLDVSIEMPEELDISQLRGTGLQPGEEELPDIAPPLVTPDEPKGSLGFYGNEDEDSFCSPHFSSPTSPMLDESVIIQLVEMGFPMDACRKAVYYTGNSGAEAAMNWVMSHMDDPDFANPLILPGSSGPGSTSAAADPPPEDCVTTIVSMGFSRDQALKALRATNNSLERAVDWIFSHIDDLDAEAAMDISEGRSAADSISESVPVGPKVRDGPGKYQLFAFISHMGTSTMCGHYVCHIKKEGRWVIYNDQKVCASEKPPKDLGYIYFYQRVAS
UniProt Q7Z434: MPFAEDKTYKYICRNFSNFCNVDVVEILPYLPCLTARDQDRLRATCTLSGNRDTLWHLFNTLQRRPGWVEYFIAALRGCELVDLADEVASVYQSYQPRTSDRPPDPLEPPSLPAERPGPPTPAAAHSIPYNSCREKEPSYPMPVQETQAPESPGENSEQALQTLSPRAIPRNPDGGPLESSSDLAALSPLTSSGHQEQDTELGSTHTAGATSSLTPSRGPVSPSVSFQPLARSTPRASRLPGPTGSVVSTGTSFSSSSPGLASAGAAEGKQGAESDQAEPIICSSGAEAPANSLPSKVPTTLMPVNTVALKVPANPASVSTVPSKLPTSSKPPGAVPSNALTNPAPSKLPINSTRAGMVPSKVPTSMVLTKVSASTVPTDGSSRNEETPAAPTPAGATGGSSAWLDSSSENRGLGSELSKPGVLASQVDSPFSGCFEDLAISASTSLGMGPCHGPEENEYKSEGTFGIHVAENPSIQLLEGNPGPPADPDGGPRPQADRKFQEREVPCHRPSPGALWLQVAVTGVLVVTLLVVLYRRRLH

Biological target: flag-NLRP3-APEX2 (human) (UniProt Q96P20)
Assay: proximity labelling

Molecule: USP1 (from UniProt O94782) (enzyme)
binding: binds

Molecule: OTULIN (from UniProt Q96BN8 1-352) (enzyme)
binding: binds

Molecule: EIF3H (from UniProt O15372 1-352)
binding: binds

Molecule: USP24 (from UniProt Q9UPU5 1-2620) (enzyme)
binding: binds

B1: PAN2 (enzyme, UniProt Q504Q3 1-1202)
chain: MNFEGLDPGLAEYAPAMHSALDPVLDAHLNPSLLQNVELDPEGVALEALPVQESVHIMEGVYSELHSVVAEVGVPVSVSHFDLHEEMLWVGSHGGHATSFFGPALERYSSFQVNGSDDIRQIQSLENGILFLTKNNLKYMARGGLIIFDYLLDENEDMHSLLLTDSSTLLVGGLQNHIIEIDLNTVQETQKYAVETPGVTIMRQTNRFFFCGHTSGKVSLRDLRTFKVEHEFDAFSGSLSDFDVHGNLLAACGFSSRLTGLACDRFLKVYDLRMMRAITPLQVHVDPAFLRFIPTYTSRLAIISQSGQCQFCEPTGLANPADIFHVNPVGPLLMTFDVSASKQALAFGDSEGCVHLWTDSPEPSFNPYSRETEFALPCLVDSLPPLDWSQDLLPLSLIPVPLTTDTLLSDWPAANSAPAPRRAPPVDAEILRTMKKVGFIGYAPNPRTRLRNQIPYRLKESDSEFDSFSQVTESPVGREEEPHLHMVSKKYRKVTIKYSKLGLEDFDFKHYNKTLFAGLEPHIPNAYCNCMIQVLYFLEPVRCLIQNHLCQKEFCLACELGFLFHMLDLSRGDPCQGNNFLRAFRTIPEASALGLILADSDEASGKGNLARLIQRWNRFILTQLHQDMQELEIPQAYRGAGGSSFCSSGDSVIGQLFSCEMENCSLCRCGSETVRASSTLLFTLSYPDGSKSDKTGKNYDFAQVLKRSICLDQNTQAWCDTCEKYQPTIQTRNIRHLPDILVINCEVNSSKEADFWRMQAEVAFKMAVKKHGGEISKNKEFALADWKELGSPEGVLVCPSIEELKNVWLPFSIRMKMTKNKGLDVCNWTDGDEMQWGPARAEEEHGVYVYDLMATVVHILDSRTGGSLVAHIKVGETYHQRKEGVTHQQWYLFNDFLIEPIDKHEAVQFDMNWKVPAILYYVKRNLNSRYNLNIKNPIEASVLLAEASLARKQRKTHTTFIPLMLNEMPQIGDLVGLDAEFVTLNEEEAELRSDGTKSTIKPSQMSVARITCVRGQGPNEGIPFIDDYISTQEQVVDYLTQYSGIKPGDLDAKISSKHLTTLKSTYLKLRFLIDIGVKFVGHGLQKDFRVINLMVPKDQVLDTVYLFHMPRKRMISLRFLAWYFLDLKIQGETHDSIEDARTALQLYRKYLELSKNGTEPESFHKVLKGLYEKGRKMDWKVPEPEGQTSPKNAAVFSSVLAL
binding: binds

B3: USP47 (enzyme, UniProt Q96K76 1-1375)
chain: MVPGEENQLVPKEDVFWRCRQNIFDEMKKKFLQIENAAEEPRVLCIIQDTTNSKTVNERITLNLPASTPVRKLFEDVANKVGYINGTFDLVWGNGINTADMAPLDHTSDKSLLDANFEPGKKNFLHLTDKDGEQPQILLEDSSAGEDSVHDRFIGPLPREGSGGSTSDYVSQSYSYSSILNKSETGYVGLVNQAMTCYLNSLLQTLFMTPEFRNALYKWEFEESEEDPVTSIPYQLQRLFVLLQTSKKRAIETTDVTRSFGWDSSEAWQQHDVQELCRVMFDALEQKWKQTEQADLINELYQGKLKDYVRCLECGYEGWRIDTYLDIPLVIRPYGSSQAFASVEEALHAFIQPEILDGPNQYFCERCKKKCDARKGLRFLHFPYLLTLQLKRFDFDYTTMHRIKLNDRMTFPEELDMSTFIDVEDEKSPQTESCTDSGAENEGSCHSDQMSNDFSNDDGVDEGICLETNSGTEKISKSGLEKNSLIYELFSVMVHSGSAAGGHYYACIKSFSDEQWYSFNDQHVSRITQEDIKKTHGGSSGSRGYYSSAFASSTNAYMLIYRLKDPARNAKFLEVDEYPEHIKNLVQKERELEEQEKRQREIERNTCKIKLFCLHPTKQVMMENKLEVHKDKTLKEAVEMAYKMMDLEEVIPLDCCRLVKYDEFHDYLERSYEGEEDTPMGLLLGGVKSTYMFDLLLETRKPDQVFQSYKPGEVMVKVHVVDLKAESVAAPITVRAYLNQTVTEFKQLISKAIHLPAETMRIVLERCYNDLRLLSVSSKTLKAEGFFRSNKVFVESSETLDYQMAFADSHLWKLLDRHANTIRLFVLLPEQSPVSYSKRTAYQKAGGDSGNVDDDCERVKGPVGSLKSVEAILEESTEKLKSLSLQQQQDGDNGDSSKSTETSDFENIESPLNERDSSASVDNRELEQHIQTSDPENFQSEERSDSDVNNDRSTSSVDSDILSSSHSSDTLCNADNAQIPLANGLDSHSITSSRRTKANEGKKETWDTAEEDSGTDSEYDESGKSRGEMQYMYFKAEPYAADEGSGEGHKWLMVHVDKRITLAAFKQHLEPFVGVLSSHFKVFRVYASNQEFESVRLNETLSSFSDDNKITIRLGRALKKGEYRVKVYQLLVNEQEPCKFLLDAVFAKGMTVRQSKEELIPQLREQCGLELSIDRFRLRKKTWKNPGTVFLDYHIYEEDINISSNWEVFLEVLDGVEKMKSMSQLAVLSRRWKPSEMKLDPFQEVVLESSSVDELREKLSEISGIPLDDIEFAKGRGTFPCDISVLDIHQDLDWNPKVSTLNVWPLYICDDGAVIFYRDKTEELMELTDEQRNELMKKESSRLQKTGHRVTYSPRKEKALKIYLDGAPNKDLTQD
binding: binds

B4: USP15 (enzyme, UniProt Q9Y4E8 1-981)
chain: MAEGGAADLDTQRSDIATLLKTSLRKGDTWYLVDSRWFKQWKKYVGFDSWDKYQMGDQNVYPGPIDNSGLLKDGDAQSLKEHLIDELDYILLPTEGWNKLVSWYTLMEGQEPIARKVVEQGMFVKHCKVEVYLTELKLCENGNMNNVVTRRFSKADTIDTIEKEIRKIFSIPDEKETRLWNKYMSNTFEPLNKPDSTIQDAGLYQGQVLVIEQKNEDGTWPRGPSTPKSPGASNFSTLPKISPSSLSNNYNNMNNRNVKNSNYCLPSYTAYKNYDYSEPGRNNEQPGLCGLSNLGNTCFMNSAIQCLSNTPPLTEYFLNDKYQEELNFDNPLGMRGEIAKSYAELIKQMWSGKFSYVTPRAFKTQVGRFAPQFSGYQQQDCQELLAFLLDGLHEDLNRIRKKPYIQLKDADGRPDKVVAEEAWENHLKRNDSIIVDIFHGLFKSTLVCPECAKISVTFDPFCYLTLPLPMKKERTLEVYLVRMDPLTKPMQYKVVVPKIGNILDLCTALSALSGIPADKMIVTDIYNHRFHRIFAMDENLSSIMERDDIYVFEININRTEDTEHVIIPVCLREKFRHSSYTHHTGSSLFGQPFLMAVPRNNTEDKLYNLLLLRMCRYVKISTETEETEGSLHCCKDQNINGNGPNGIHEEGSPSEMETDEPDDESSQDQELPSENENSQSEDSVGGDNDSENGLCTEDTCKGQLTGHKKRLFTFQFNNLGNTDINYIKDDTRHIRFDDRQLRLDERSFLALDWDPDLKKRYFDENAAEDFEKHESVEYKPPKKPFVKLKDCIELFTTKEKLGAEDPWYCPNCKEHQQATKKLDLWSLPPVLVVHLKRFSYSRYMRDKLDTLVDFPINDLDMSEFLINPNAGPCRYNLIAVSNHYGGMGGGHYTAFAKNKDDGKWYYFDDSSVSTASEDQIVSKAAYVLFYQRQDTFSGTGFFPLDRETKGASAATGIPLESDEDSNDNDNDIENENCMHTN
binding: binds

More lines, now with the values ahead:

binding: binds
Molecule: USP9X (from UniProt Q93008 1-2554) (enzyme)

binding: binds
Molecule: USP5 (from UniProt P45974 1-858) (enzyme)

binding: binds
Molecule: MAVS (from UniProt Q7Z434 1-540)

binding: binds
B2: USP8 (enzyme, UniProt P40818 1-1118)
chain: MPAVASVPKELYLSSSLKDLNKKTEVKPEKISTKSYVHSALKIFKTAEECRLDRDEERAYVLYMKYVTVYNLIKKRPDFKQQQDYFHSILGPGNIKKAVEEAERLSESLKLRYEEAEVRKKLEEKDRQEEAQRLQQKRQETGREDGGTLAKGSLENVLDSKDKTQKSNGEKNEKCETKEKGAITAKELYTMMTDKNISLIIMDARRMQDYQDSCILHSLSVPEEAISPGVTASWIEAHLPDDSKDTWKKRGNVEYVVLLDWFSSAKDLQIGTTLRSLKDALFKWESKTVLRNEPLVLEGGYENWLLCYPQYTTNAKVTPPPRRQNEEVSISLDFTYPSLEESIPSKPAAQTPPASIEVDENIELISGQNERMGPLNISTPVEPVAASKSDVSPIIQPVPSIKNVPQIDRTKKPAVKLPEEHRIKSESTNHEQQSPQSGKVIPDRSTKPVVFSPTLMLTDEEKARIHAETALLMEKNKQEKELRERQQEEQKEKLRKEEQEQKAKKKQEAEENEITEKQQKAKEEMEKKESEQAKKEDKETSAKRGKEITGVKRQSKSEHETSDAKKSVEDRGKRCPTPEIQKKSTGDVPHTSVTGDSGSGKPFKIKGQPESGILRTGTFREDTDDTERNKAQREPLTRARSEEMGRIVPGLPSGWAKFLDPITGTFRYYHSPTNTVHMYPPEMAPSSAPPSTPPTHKAKPQIPAERDREPSKLKRSYSSPDITQAIQEEEKRKPTVTPTVNRENKPTCYPKAEISRLSASQIRNLNPVFGGSGPALTGLRNLGNTCYMNSILQCLCNAPHLADYFNRNCYQDDINRSNLLGHKGEVAEEFGIIMKALWTGQYRYISPKDFKITIGKINDQFAGYSQQDSQELLLFLMDGLHEDLNKADNRKRYKEENNDHLDDFKAAEHAWQKHKQLNESIIVALFQGQFKSTVQCLTCHKKSRTFEAFMYLSLPLASTSKCTLQDCLRLFSKEEKLTDNNRFYCSHCRARRDSLKKIEIWKLPPVLLVHLKRFSYDGRWKQKLQTSVDFPLENLDLSQYVIGPKNNLKKYNLFSVSNHYGGLDGGHYTAYCKNAARQRWFKFDDHEVSDISVSSVKSSAAYILFYTSLGPRVTDVAT

binding: binds
B5: USP19 (enzyme, UniProt O94966 1-1318)
chain: MSGGASATGPRRGPPGLEDTTSKKKQKDRANQESKDGDPRKETGSRYVAQAGLEPLASGDPSASASHAAGITGSRHRTRLFFPSSSGSASTPQEEQTKEGACEDPHDLLATPTPELLLDWRQSAEEVIVKLRVGVGPLQLEDVDAAFTDTDCVVRFAGGQQWGGVFYAEIKSSCAKVQTRKGSLLHLTLPKKVPMLTWPSLLVEADEQLCIPPLNSQTCLLGSEENLAPLAGEKAVPPGNDPVSPAMVRSRNPGKDDCAKEEMAVAADAATLVDEPESMVNLAFVKNDSYEKGPDSVVVHVYVKEICRDTSRVLFREQDFTLIFQTRDGNFLRLHPGCGPHTTFRWQVKLRNLIEPEQCTFCFTASRIDICLRKRQSQRWGGLEAPAARVGGAKVAVPTGPTPLDSTPPGGAPHPLTGQEEARAVEKDKSKARSEDTGLDSVATRTPMEHVTPKPETHLASPKPTCMVPPMPHSPVSGDSVEEEEEEEKKVCLPGFTGLVNLGNTCFMNSVIQSLSNTRELRDFFHDRSFEAEINYNNPLGTGGRLAIGFAVLLRALWKGTHHAFQPSKLKAIVASKASQFTGYAQHDAQEFMAFLLDGLHEDLNRIQNKPYTETVDSDGRPDEVVAEEAWQRHKMRNDSFIVDLFQGQYKSKLVCPVCAKVSITFDPFLYLPVPLPQKQKVLPVFYFAREPHSKPIKFLVSVSKENSTASEVLDSLSQSVHVKPENLRLAEVIKNRFHRVFLPSHSLDTVSPSDTLLCFELLSSELAKERVVVLEVQQRPQVPSVPISKCAACQRKQQSEDEKLKRCTRCYRVGYCNQLCQKTHWPDHKGLCRPENIGYPFLVSVPASRLTYARLAQLLEGYARYSVSVFQPPFQPGRMALESQSPGCTTLLSTGSLEAGDSERDPIQPPELQLVTPMAEGDTGLPRVWAAPDRGPVPSTSGISSEMLASGPIEVGSLPAGERVSRPEAAVPGYQHPSEAMNAHTPQFFIYKIDSSNREQRLEDKGDTPLELGDDCSLALVWRNNERLQEFVLVASKELECAEDPGSAGEAARAGHFTLDQCLNLFTRPEVLAPEEAWYCPQCKQHREASKQLLLWRLPNVLIVQLKRFSFRSFIWRDKINDLVEFPVRNLDLSKFCIGQKEEQLPSYDLYAVINHYGGMIGGHYTACARLPNDRSSQRSDVGWRLFDDSTVTTVDESQVVTRYAYVLFYRRRNSPVERPPRAGHSEHHPDLGPAAEAAASQASRIWQELEAEEEPVPEGSGPLGPWGPQDWVGPLPRGPTTPDEGCLRYFVLGTVAALVALVLNVFYPLVSQSRWR
